Measured values: publication PMC12030706 (Pharmaceuticals, 2025)
Numbered stars: 1 amine (or outer) side, 2 acyl side, 3 side chain; on linkers, the order of the positions; unused ones are H or OH. Square brackets hold non-standard residues; d marks the D form. Peptide text beside a SMILES is read from it. * marks the point of attachment. DOTA = O=C(O)CN1CCN(CC(=O)O)CCN(CC(=O)*)CCN(CC(=O)O)CC1; NMeH = CN[C@@H](Cc1c[nH]cn1)C(=O)O; X1 = O=C(CN1CCC(N[*:1])CC1)[*:2]; Tle = CC(C)(C)[C@H](N)C(=O)O; Thz = O=C(O)[C@@H]1CSCN1

Legend:
[1] = tested on: PC-3 tumor-bearing NRG mouse; assay: Longitudinal SPECT/CT imaging in PC-3 tumor-bearing mice; type: in vivo, mice (NRG); conditions: post-injection
Protocol: The PC-3 tumor-bearing mice were sedated (2.5% isoflurane in O2) and injected with ^177Lu-labeled ligands (15–32 MBq) through a lateral caudal tail vein. […] At each time point, a 5 min CT scan was obtained using 615 μA and 60 kV parameters for localization and attenuation, followed by 2 × 30 min static SPECT scans acquired in list mode with an energy window centered around 208 keV. The MILabs U-SPECT II reconstruction software (version 8.00) was used to reconstruct data, and the images were decay corrected to the time of injection with PMOD v 3.402 (PMOD Technologies GmbH, Fallanden, Switzerland).

[2] = tested on: mice, PC-3 tumor xenograft and organs; assay: Radiation dosimetry in mice (OLINDA, from biodistribution data); type: in vivo
[3] = tested on: adult human male model; assay: Radiation dosimetry extrapolated to adult human male model (OLINDA); type: in vivo
[4] = extrapolated from mouse, listed as [177Lu]Lu-LW01142

Q: Which “PC-3 tumor xenografts visualized in SPECT images up to” value [1] does the source give for `CC(C)C[C@H](NC(=O)[C@H](Cc1cnc[nH]1)N(C)C(=O)CNC(=O)[C@@H](NC(=O)[C@H](C)NC(=O)[C@H](Cc1c[nH]c2ccccc12)NC(=O)[C@H](Cc1c[nH]cn1)NC(=O)[C@@H](Cc1ccccc1)NC(=O)CN1CCC(NC(=O)CN2CCN(CC(=O)O)CCN(CC(=O)O)CCN(CC(=O)O)CC2)CC1)C(C)(C)C)C(=O)N1CSC[C@H]1C(N)=O` [[^177Lu]Lu-LW01142, metal not drawn] ({DOTA}-[X1][dF]HWA[Tle]G[NMeH]L[Thz]-NH2) here?
A: up to 120 h

Q: And the “Radiation absorbed dose, (urinary) bladder” value [2]?
A: 1180 mGy/MBq

Q: And the “Radiation absorbed dose, brain” value [2]?
A: 3.7 mGy/MBq

Q: And the “Radiation absorbed dose, heart” value [2]?
A: 4.65 mGy/MBq

Q: And the “Radiation absorbed dose, kidneys” value [2]?
A: 294 mGy/MBq

Q: And the “Radiation absorbed dose, large intestine” value [2]?
A: 49.5 mGy/MBq

Q: What about the “Radiation absorbed dose, liver” value [2] of the same compound?
A: 38.8 mGy/MBq

Q: What about the “Radiation absorbed dose, lungs” value [2] of the same compound?
A: 22.7 mGy/MBq

Q: What about the “Radiation absorbed dose, pancreas” value [2] of the same compound?
A: 180 mGy/MBq

Q: What about the “Radiation absorbed dose, skeleton” value [2] of the same compound?
A: 14.5 mGy/MBq

Q: And the “Radiation absorbed dose, small intestine” value [2]?
A: 25 mGy/MBq

Q: And the “Radiation absorbed dose, spleen” value [2]?
A: 35.4 mGy/MBq

Q: What about the “Radiation absorbed dose, stomach wall” value [2] of the same compound?
A: 42.7 mGy/MBq

Q: And the “Radiation absorbed dose, testes” value [2]?
A: 4.46 mGy/MBq

Q: What about the “Radiation absorbed dose, thyroid” value [2] of the same compound?
A: 1.65 mGy/MBq

Q: What about the “Radiation absorbed dose, total body” value [2] of the same compound?
A: 20 mGy/MBq

Q: What about the “Radiation absorbed dose, PC-3 tumor” value ([2]; 1 g PC-3 tumor xenograft (Unit Density Sphere Model)) of the same compound?
A: 312 mGy/MBq

Q: And the “estimated pancreas absorbed dose as % of that of [177Lu]Lu-NeoB” value [3]?
A: 28%

Q: What about the “estimated pancreas absorbed dose as % of that of [177Lu]Lu-RM2” value [3] of the same compound?
A: 67%

Q: And the “Effective (whole-body) dose” value ([3]; extrapolated from mouse)?
A: 1.16 × 10^−2 mSv/MBq

Q: And the “Estimated radiation absorbed dose, adrenals” value ([3]; extrapolated from mouse)?
A: 2.82E-02 mGy/MBq

Q: What about the “Estimated radiation absorbed dose, brain” value ([3]; extrapolated from mouse) of the same compound?
A: 9.04E-04 mGy/MBq

Q: And the “Estimated radiation absorbed dose, esophagus” value ([3]; extrapolated from mouse)?
A: 7.08E-04 mGy/MBq

Q: And the “Estimated radiation absorbed dose, eyes” value ([3]; extrapolated from mouse)?
A: 3.53E-04 mGy/MBq

Q: And the “Estimated radiation absorbed dose, gallbladder wall” value ([3]; extrapolated from mouse)?
A: 1.16E-03 mGy/MBq

Q: And the “Estimated radiation absorbed dose, heart” value ([3]; extrapolated from mouse)?
A: 3.12E-03 mGy/MBq

Q: And the “Estimated radiation absorbed dose, kidneys” value ([3]; extrapolated from mouse)?
A: 1.27E-01 mGy/MBq

Q: And the “Estimated radiation absorbed dose, left colon” value ([3]; extrapolated from mouse)?
A: 2.02E-02 mGy/MBq

Q: And the “Estimated radiation absorbed dose, liver” value ([3]; extrapolated from mouse)?
A: 1.63E-02 mGy/MBq

Q: And the “Estimated radiation absorbed dose, lungs” value ([3]; extrapolated from mouse)?
A: 1.03E-02 mGy/MBq

Q: And the “Estimated radiation absorbed dose, pancreas” value ([3]; extrapolated from mouse)?
A: 7.79 × 10^−2 mGy/MBq

Q: What about the “Estimated radiation absorbed dose, prostate” value ([3]; extrapolated from mouse) of the same compound?
A: 1.22E-03 mGy/MBq

Q: And the “Estimated radiation absorbed dose, rectum” value ([3]; extrapolated from mouse)?
A: 9.97E-03 mGy/MBq

Q: And the “Estimated radiation absorbed dose, red marrow” value ([3]; extrapolated from mouse)?
A: 7.84E-04 mGy/MBq

Q: What about the “Estimated radiation absorbed dose, right colon” value ([3]; extrapolated from mouse) of the same compound?
A: 1.05E-02 mGy/MBq

Q: And the “Estimated radiation absorbed dose, salivary glands” value ([3]; extrapolated from mouse)?
A: 3.67E-04 mGy/MBq

Q: And the “Estimated radiation absorbed dose, skeleton” value ([3]; extrapolated from mouse)?
A: 1.02E-03 mGy/MBq

Q: What about the “Estimated radiation absorbed dose, small intestine” value ([3]; extrapolated from mouse) of the same compound?
A: 9.57E-03 mGy/MBq

Q: And the “Estimated radiation absorbed dose, spleen” value ([3]; extrapolated from mouse)?
A: 1.42E-02 mGy/MBq

Q: What about the “Estimated radiation absorbed dose, stomach wall” value ([3]; extrapolated from mouse) of the same compound?
A: 5.38E-03 mGy/MBq

Q: And the “Estimated radiation absorbed dose, testes” value ([3]; extrapolated from mouse)?
A: 1.10E-03 mGy/MBq

Q: What about the “Estimated radiation absorbed dose, thymus” value ([3]; extrapolated from mouse) of the same compound?
A: 5.31E-04 mGy/MBq

Q: What about the “Estimated radiation absorbed dose, thyroid” value ([3]; extrapolated from mouse) of the same compound?
A: 4.44E-04 mGy/MBq

Q: What about the “Estimated radiation absorbed dose, total body” value ([3]; extrapolated from mouse) of the same compound?
A: 2.67E-03 mGy/MBq

Q: And the “Estimated radiation absorbed dose, urinary bladder” value ([3]; extrapolated from mouse)?
A: 1.17E-01 mGy/MBq

Q: What about the “Effective (whole-body) dose” value [3, 4] of the same compound?
A: 1.16E-02 mSv/MBq

Q: And the “Estimated radiation absorbed dose, pancreas” value [3, 4]?
A: 7.79E-02 mGy/MBq
